Assay results reported in publication PMC12047440, “LINE-1 ribonucleoprotein condensates bind DNA to enable nuclear entry during mitosis” (Science Advances, 2024).
For part of these data: A weaker result is weaker than the reference pair of the same experiment. For part of these data: Where a protein sequence is shown, tags need not be part of it. For part of these data: The exact form of at least one protein or probe is not confirmed.

Assays:
ORF1p WT (Homo sapiens) [1] = target: T1, ORF1p WT (Homo sapiens) (UniProt Q9UN81); assay: competition (fluorescence anisotropy); settings: apparent Kd, DNA curtains: 50, 150 or 300 mM KCl, RNP premix 1 min at room temperature, recombinant protein, protein details: tag removed, N-terminal G left
T1 sequence: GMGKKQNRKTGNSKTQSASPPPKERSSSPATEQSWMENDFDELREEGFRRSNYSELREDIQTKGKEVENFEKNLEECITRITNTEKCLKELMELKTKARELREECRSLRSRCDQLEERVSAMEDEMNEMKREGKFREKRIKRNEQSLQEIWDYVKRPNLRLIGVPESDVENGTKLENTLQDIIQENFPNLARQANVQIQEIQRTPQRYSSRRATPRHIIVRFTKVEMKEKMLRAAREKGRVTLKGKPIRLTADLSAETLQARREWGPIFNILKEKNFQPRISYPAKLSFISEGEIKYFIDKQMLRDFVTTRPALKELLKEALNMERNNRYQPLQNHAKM

[2] = target: His-TEV-ORF1p (Homo sapiens) (UniProt Q9UN81); assay: fluorescence anisotropy; settings: slight Kd increase vs WT, P=0.018; Anisotropy: 20 mM Hepes pH 7.5, 50 mM KCl, 1 mM MgCl2, 1 mM DTT, 1 nM 6-FAM oligo, temperature not stated; recombinant protein; protein details: uncleaved N-terminal His-TEV, C-terminal ybbR; label: 5' 6-FAM (anisotropy)
ORF1p WT (Homo sapiens) [3] = target: T1, ORF1p WT (Homo sapiens); assay: fluorescence anisotropy; settings: slightly reduced affinity, Anisotropy: 20 mM Hepes pH 7.5, 50 mM KCl, 1 mM MgCl2, 1 mM DTT, 1 nM 6-FAM oligo, temperature not stated, recombinant protein, protein details: tag removed, N-terminal G left, label: 5' 6-FAM (anisotropy)
[4] = target: T2, ΔStammer-ORF1p del91-93 (Homo sapiens) (UniProt Q9UN81); assay: fluorescence anisotropy; settings: slight Kd increase vs WT, P=0.041; Anisotropy: 20 mM Hepes pH 7.5, 50 mM KCl, 1 mM MgCl2, 1 mM DTT, 1 nM 6-FAM oligo, temperature not stated; recombinant protein; protein details: tag removed by TEV, N-terminal G left; label: 5' 6-FAM (anisotropy)
T2 sequence: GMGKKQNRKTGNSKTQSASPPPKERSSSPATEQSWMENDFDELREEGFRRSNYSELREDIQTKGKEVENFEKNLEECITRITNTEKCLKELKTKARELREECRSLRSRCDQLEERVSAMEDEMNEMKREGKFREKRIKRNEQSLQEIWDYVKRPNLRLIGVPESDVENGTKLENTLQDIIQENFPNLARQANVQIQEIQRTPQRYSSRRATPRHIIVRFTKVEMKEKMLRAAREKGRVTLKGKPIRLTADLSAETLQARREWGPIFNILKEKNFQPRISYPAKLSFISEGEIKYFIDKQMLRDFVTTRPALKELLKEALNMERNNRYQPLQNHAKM

Sequence	Kd (ORF1p WT (Homo sapiens) [1]; ORF1p presaturated with 100 nM 30 nt RNA, label: 5' 6-FAM on strand 1 (anisotropy)) [nM]	binding result [2]	binding result (ORF1p WT (Homo sapiens) [3]; 150 mM KCl)	binding result (ORF1p WT (Homo sapiens) [3]; 300 mM KCl)	binding result [4]	Kd (ORF1p WT (Homo sapiens) [1]; ORF1p presaturated with 100 nM 30 bp dsDNA, label: 5' 6-FAM (anisotropy)) [nM]
ACCATCATCAAAGACCAAAAGTAGATAAAA (double strand) [30 bp dsDNA]	644	–	–	–	–	–
ACCAUCAUCAAAGACCAAAAGUAGAUAAAA [30 nt RNA]	–	binds more weakly	binds more weakly	binds more weakly	binds more weakly	95
